Laboratory results published in PMC7819943, “Rice protein-binding microarrays: a tool to detect cis-acting elements near promoter regions in rice”.
Some of the results follow.

biological target: T1, OsSMF1 (Oryza sativa, UniProt Q6ZLB0 1-436); test: protein-binding microarray (RPBM); PBS, 2% BSA, 51.3 ng/ul salmon testes DNA, 50 uM zinc acetate, 200 nM TF, 25 C, 1 h; high values mean tight binding; details: protein: recombinant; tags: N-terminal polyhistidine and DsRed monomer fusion (pET32a); chain copies: 2; label: CyDye5-dUTP incorporated in the synthesized complementary strand; 3' TTTTT single-stranded linker to array surface; dsDNA, one strand shown
T1 sequence: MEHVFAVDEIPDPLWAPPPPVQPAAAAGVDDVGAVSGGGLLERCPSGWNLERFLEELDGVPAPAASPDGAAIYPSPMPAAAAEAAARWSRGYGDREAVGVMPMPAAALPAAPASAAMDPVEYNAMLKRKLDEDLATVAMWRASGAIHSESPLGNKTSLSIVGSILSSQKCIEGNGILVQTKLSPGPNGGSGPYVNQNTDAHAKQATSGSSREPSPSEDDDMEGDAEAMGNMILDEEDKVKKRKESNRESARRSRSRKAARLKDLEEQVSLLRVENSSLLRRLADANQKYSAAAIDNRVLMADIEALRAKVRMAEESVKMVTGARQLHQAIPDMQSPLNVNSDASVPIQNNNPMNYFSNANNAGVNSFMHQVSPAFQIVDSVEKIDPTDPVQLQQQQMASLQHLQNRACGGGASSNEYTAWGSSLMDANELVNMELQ
In short: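 Per-feature fluorescence intensity (arbitrary units), read on an Axon 4000B scanner, is the binding signal. Transcription factors carrying an N-terminal polyhistidine tag and DsRed fusion were expressed in E. coli BL21-CodonPlus and purified on Ni–NTA. A custom Agilent array, made double-stranded by primer extension with Cy5-dUTP and blocked with 2% BSA, was incubated with 200 nM protein in PBS, 2% BSA, salmon testes DNA and 50 µM zinc acetate at 25 °C for 1 h and then washed.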

Q: With “CTCCTCCTCCTCCAGACCTCCACGCGAGCGTGCCCCGGGGCGGAGTCACCTAGTGCAG” as the sequence, how does the binding signal read?
A: 4470 fluorescence intensity (a.u.)

Q: How did the binding signal turn out when “AGATTGTTCACAAAATGTACATCTCTTATAATTATATAAGCGGAGTCACCTAGTGCAG” was run?
A: 14600 fluorescence intensity (a.u.)

Q: For “TGCTCCGCACAGGGCCTGACGCGACGAGATGACATGGTCGCGGAGTCACCTAGTGCAG”, which binding signal is on record?
A: 4080 fluorescence intensity (a.u.)

Q: How did the binding signal turn out when “CAGCCGCCAGCGCAACGGCCGCCGGCCGTCCGCGTCAGCCCGGAGTCACCTAGTGCAG” was run?
A: 11500 fluorescence intensity (a.u.)

Q: “TCTTTCTTGGTGTTTGTTCAATATTTGTTTCATCCATGCTCGGAGTCACCTAGTGCAG” was tested. Which binding signal did it give?
A: 21900 fluorescence intensity (a.u.)

Q: Which binding signal does the source give for “GGAAGGGAGAGAGATGACTCATCCCCACACGTGGGACCCACGGAGTCACCTAGTGCAG” here?
A: 10600 fluorescence intensity (a.u.)

Q: With “TGCTGCTATAGATCTAGTCACTGTTTGCGCCATACTCTTGCGGAGTCACCTAGTGCAG” as the sequence, how does the binding signal read?
A: 3600 fluorescence intensity (a.u.)

Q: With “ATCCTGACGCATCTCTGAACACAAGATGACGCATTGTGCCCGGAGTCACCTAGTGCAG” as the sequence, how does the binding signal read?
A: 9450 fluorescence intensity (a.u.)

Q: How did the binding signal turn out when “AGATAAGTGATGTGGTTGATACAGACAGTGGGGTGCATATCGGAGTCACCTAGTGCAG” was run?
A: 3760 fluorescence intensity (a.u.)

Q: Which binding signal does the source give for “ATTGACATGGAGTCATGGACACTCTCCCTGCCTCCTCCCTCGGAGTCACCTAGTGCAG” here?
A: 3370 fluorescence intensity (a.u.)

Q: How did the binding signal turn out when “ACCAGTGAAAGAGGTCGACGTATATGTAGTCGTTGTTTCGCGGAGTCACCTAGTGCAG” was run?
A: 3140 fluorescence intensity (a.u.)

Q: Which binding signal does the source give for “ACCTTCTCGGTCGACATCGGAGATTAACCTAGACAAACCCCGGAGTCACCTAGTGCAG” here?
A: 3240 fluorescence intensity (a.u.)

Q: Which binding signal does the source give for “AAATGGCACCGCTACAGTCTCCCCAAAGCTCCCACGTCCTCGGAGTCACCTAGTGCAG” here?
A: 3690 fluorescence intensity (a.u.)

Q: With “ATATTCGTCTCTATCGCTTAAGGCGGTTAGTTGCGTGTCACGGAGTCACCTAGTGCAG” as the sequence, how does the binding signal read?
A: 3930 fluorescence intensity (a.u.)

Q: “GAATACTCTGTGAGCCTGTGTTGTGAGTTGTGACGAGGCACGGAGTCACCTAGTGCAG” was tested. Which binding signal did it give?
A: 5670 fluorescence intensity (a.u.)

Q: Which binding signal does the source give for “GACCGAGAGCGGCAGGGGCGCAGAGCGCGACGCCAAGTCACGGAGTCACCTAGTGCAG” here?
A: 3590 fluorescence intensity (a.u.)

Q: For “AGCGACACGAGCGTCACGTGTCACGCTTACTCGAGTCATCCGGAGTCACCTAGTGCAG”, which binding signal is on record?
A: 6240 fluorescence intensity (a.u.)

Q: With “GACTCCAAAATGTATGTATGTATGACGGGTGGGACCAGACCGGAGTCACCTAGTGCAG” as the sequence, how does the binding signal read?
A: 4020 fluorescence intensity (a.u.)

Q: “TCGACATTCTAGCGAAAATAATTTTGAAAACACACAAAGTCGGAGTCACCTAGTGCAG” was tested. Which binding signal did it give?
A: 3830 fluorescence intensity (a.u.)

Q: With “CCAGTGTTGTACAAACACTATATTACATGTCAATTTGACACGGAGTCACCTAGTGCAG” as the sequence, how does the binding signal read?
A: 3260 fluorescence intensity (a.u.)

Q: For “TCCAAGTATATGTATGTGGCAGTGTGTACTCCGCAGTTTACGGAGTCACCTAGTGCAG”, which binding signal is on record?
A: 4530 fluorescence intensity (a.u.)

Q: With “GCTGTCATGAGGACATGTCTTATTCTTGCGCGTGGCATGTCGGAGTCACCTAGTGCAG” as the sequence, how does the binding signal read?
A: 4580 fluorescence intensity (a.u.)

Q: How did the binding signal turn out when “TTGCTTACGGATTAAAAGGGAGGTCTTGACTCAACCCGTCCGGAGTCACCTAGTGCAG” was run?
A: 3700 fluorescence intensity (a.u.)

Q: How did the binding signal turn out when “GAATCAGCTTGCTGACGTTAGAGGTTTCAGTTTACCTAATCGGAGTCACCTAGTGCAG” was run?
A: 5180 fluorescence intensity (a.u.)

Q: For “AGGTTGCTATGCCGCCGTCCACGAGTGATGTCACCTTCATCGGAGTCACCTAGTGCAG”, which binding signal is on record?
A: 10200 fluorescence intensity (a.u.)

Q: Which binding signal does the source give for “TTCTTTGGTGGTTTTGATCCGATTTTGTCCTACGTGGCGGCGGAGTCACCTAGTGCAG” here?
A: 20100 fluorescence intensity (a.u.)

Q: How did the binding signal turn out when “AGCTACCTTTGAATTGTCTGGTCATGCCGGGCTGGTTGATCGGAGTCACCTAGTGCAG” was run?
A: 3490 fluorescence intensity (a.u.)

Q: “GTGTGTTGCTTACACATCGACCAAACAAATAAAATCAGTGCGGAGTCACCTAGTGCAG” was tested. Which binding signal did it give?
A: 4480 fluorescence intensity (a.u.)

Q: Which binding signal does the source give for “TAGGCCCAATCTCCATCCCCGCCACAGCTGACCACTCCGTCGGAGTCACCTAGTGCAG” here?
A: 3370 fluorescence intensity (a.u.)

Q: For “CTAGACCAGATGAGCGAACTCCAAAACTGGATTGTCCATGCGGAGTCACCTAGTGCAG”, which binding signal is on record?
A: 3200 fluorescence intensity (a.u.)

Q: For “CCACTGTTTTCCACTACTTAGTGTGCTTACTCATGGGCTCCGGAGTCACCTAGTGCAG”, which binding signal is on record?
A: 5110 fluorescence intensity (a.u.)

Q: With “ACGGCTCGTGATCAGCATCGCGCCACGTGTCCGTCCCACCCGGAGTCACCTAGTGCAG” as the sequence, how does the binding signal read?
A: 23500 fluorescence intensity (a.u.)

Q: For “AATGTTTGTAGCACGGGAGGCATACCACATACATACATTGCGGAGTCACCTAGTGCAG”, which binding signal is on record?
A: 3640 fluorescence intensity (a.u.)

Q: Which binding signal does the source give for “ACATGTGGGTCCTGTTGACATGTAGGTGCCACCTTGGCATCGGAGTCACCTAGTGCAG” here?
A: 4440 fluorescence intensity (a.u.)

Q: How did the binding signal turn out when “CGAGACTATCATCTAATGGACAACTCATCTTTTAATTGTGCGGAGTCACCTAGTGCAG” was run?
A: 5180 fluorescence intensity (a.u.)

Q: Which binding signal does the source give for “GCCTCGCGCCGTGACCACGTCCACGACGACGAGGACGACGCGGAGTCACCTAGTGCAG” here?
A: 3490 fluorescence intensity (a.u.)

Q: How did the binding signal turn out when “TACTACTACTTCTCGGCCGGTATGACGTTCGCCGACGATTCGGAGTCACCTAGTGCAG” was run?
A: 3160 fluorescence intensity (a.u.)

Q: For “AGGGAGTAGTATAGAATAAGGGCCTGTTTAGATCCCCGGTCGGAGTCACCTAGTGCAG”, which binding signal is on record?
A: 5040 fluorescence intensity (a.u.)

Q: For “TACTCCTTTCGTCTCCAACCCCTCGCCGCCGCCGCCACCCCGGAGTCACCTAGTGCAG”, which binding signal is on record?
A: 3180 fluorescence intensity (a.u.)

Q: Which binding signal does the source give for “CGAGACGTGCCTGCGGCGGTGCGGCGACGTGGAGATCCCGCGGAGTCACCTAGTGCAG” here?
A: 4840 fluorescence intensity (a.u.)

Q: For “GGTCATTAGCCCCTGCTACTACCGCCGCCACGCCGTCGTCCGGAGTCACCTAGTGCAG”, which binding signal is on record?
A: 3520 fluorescence intensity (a.u.)

Q: Which binding signal does the source give for “GGGAAGGGTGACGGTGGTGCACATATGTGTGTGTGGCTGCCGGAGTCACCTAGTGCAG” here?
A: 3420 fluorescence intensity (a.u.)
